Measurements from US11090304B2 (Amgen Inc., priority 2018, dated 2021).
At least one compound was matched to its structure with a doubt left.

Tested on: Phosphorylation of ERK1/2 in A549 cells
Assay: Phospho-ERK1/2 MSD assay in A549 cells
Type: cell-based
Conditions: read-out: p-ERK IC50 (2 h; A549), 2 h compound treatment
Procedure: For compounds in Table 89, the following assay conditions were employed:
Phospho-ERK1/2 MSD Assay:
Sixteen hours prior to compound treatment, MIA PaCa-2 or A549 cells were seeded in 96-well cell culture plates at a density of 25,000 cells/well and incubated at 37° C., 5% CO2. A compound dose-response titration was diluted in growth media, added to appropriate wells of a cell culture plate, and then incubated at 37° C., 5% CO2 for 2 or 4 hours (see Table 15). Following compound treatment, cells were stimulated with 10 ng/mL EGF (Roche 11376454001) for 10 min, washed with ice-cold Dulbecco's phosphate-buffered saline, no Ca^2+ or Mg^2+ (ThermoFisher Scientific 14190144), and then lysed in RIPA buffer (50 mM Tris-HCl pH 7.5, 1% Igepal, 0.5% sodium deoxycholate, 150 mM NaCl, and 0.5% sodium dodecyl sulfate) containing protease inhibitors (Roche 4693132001) and phosphatase inhibitors (Roche 4906837001). Phosphorylation of ERK1/2 in compound-treated lysates was assayed using Phospho-ERK1/2 Whole Cell Lysate kits (Meso Scale Discovery K151DWD) according to the manufacturer's protocol. Assay plates were read on a Meso Scale Discovery Sector Imager 6000, and data were analyzed using a 4-parameter logistic model to calculate IC50 values.

| SMILES | IC50 [µM] |
| --- | --- |
| C=CC(=O)N1CCN(c2nc(=O)n(-c3c(C)ccnc3C(C)C)c3nc(-c4c(N)cccc4F)c(Cl)cc23)[C@@H](C)C1 (atropisomer, axis not shown; (M)) [Example 73-1, (M)-7-(2-Amino-6-fluorophenyl)-6-chloro-1-(4-methyl-2-(2-propanyl)-3-pyridinyl)-4-((2S)-2-methyl-4-(2-propenoyl)-1-piperazinyl)pyrido[2,3-d]pyrimidin-2(1H)-one] | ≥ 10 |
| C=CC(=O)N1C[C@@H](C)N(c2nc(=O)n(-c3c(C)ccnc3C(C)C)c3nc(-c4c(O)cccc4F)c(F)cc23)[C@@H](C)C1 (atropisomer, axis not shown; (M)) [Example 75-1, (M)-4-(cis-2,6-Dimethyl-4-(2-propenoyl)-1-piperazinyl)-6-fluoro-7-(2-fluoro-6-hydroxyphenyl)-1-(4-methyl-2-(2-propanyl)-3-pyridinyl)pyrido[2,3-d]pyrimidin-2(1H)-one] | ≥ 10 |
